Source: patent US4591552A, “Detection of hepatitis B surface antigen (or antibody to same) with labeled synthetic peptide” (priority 1982, dated 1986)
Not every detail of the peptide structures is certain; ends, links or a residue may be inferred. Where no end group is shown, it is not given here.

Test system: antiserum to the synthetic peptide
Experiment: Competition immunoassay: binding to Staphylococci (protein A) of β-galactosidase-conjugated peptide 135-155 complexed with homologous antibodies
Parameters: species or system rabbit
Description: It is known that immunoglobulins of the IgG class attach to Staphylococci carrying protein A. If the immunoglobulins are bound to labeled antigens thus forming immune complexes, such (labeled) complexes attach to the Staphylococci. […] The above forms the basis of the following test:
250 μl of mixtures containing various unlabeled antigens, 1:125 diluted antiserum to the synthetic peptide (see Example 3 above), 1:8,000 diluted peptide-β-galactosidase conjugate (see Example 2 above) and 50 mg/ml of bovine serum albumin (BSA) were each incubated for 30 minutes at 37° C. and mixed with an equal volume of a 2.5% suspension of Staphylococci (Pansorbin, Calbiochem, LaJolla, Calif.). The bacteria were pelleted, washed with tris-buffered saline, and the adsorbed β-galactosidase corresponding to the enzyme-peptide conjugate was determined fluorometrically as described by Neurrath and Strick, J. Virol. Methods, supra. The fluorescence in the absence of unlabeled competing antigens was 900.

[1] = absolute quantity of inhibitor 2 ng
[2] = absolute quantity of inhibitor 20 ng
[3] = absolute quantity of inhibitor 200 ng
[4] = absolute quantity of inhibitor 2 μg

Row | Substance | % Inhibition [1] [%] | % Inhibition [2] [%] | % Inhibition [3] [%] | % Inhibition [4] [%]
1 | CIPIPSS [149-155] | 25 | 45 | 86.3 | 94
2 | IPIPSS [150-155] | 4.5 | 27 | 54 | 61
